In paper PMC10576032:
These are yes or no findings as the source states them, for the method shown. In cells and extracts the contact can be indirect.

Target: T1, ATF3 (activating transcription factor 3) (human (endogenous in the paper's human cell lines; line of the co-IP not stated)) (UniProt P18847)
T1 sequence: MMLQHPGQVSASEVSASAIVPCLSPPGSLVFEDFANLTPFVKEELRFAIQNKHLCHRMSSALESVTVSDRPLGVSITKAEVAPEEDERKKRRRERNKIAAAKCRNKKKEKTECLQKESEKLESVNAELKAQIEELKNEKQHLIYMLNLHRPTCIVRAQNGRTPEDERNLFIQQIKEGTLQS
Assay: co-IP; ATF3 antibody immobilised on Dynabeads; cells treated with DMSO or 100 nM sangivamycin for 24 h; western blot of the co-IP complex

binding: no binding
B1: DDIT4 (protein, UniProt Q9NX09 1-232)
chain: MPSLWDRFSSSSTSSSPSSLPRTPTPDRPPRSAWGSATREEGFDRSTSLESSDCESLDSSNSGFGPEEDTAYLDGVSLPDFELLSDPEDEHLCANLMQLLQESLAQARLGSRRPARLLMPSQLVSQVGKELLRLAYSEPCGLRGALLDVCVEQGKSCHSVGQLALDPSLVPTFQLTLVLRLDSRLWPKIQGLFSSANSPFLPGFSQSLTLSTGFRVIKKKLYSSEQLLIEEC
